Article PMC9867837
For at least one entry, the source does not settle the construct or the ends of the probe. Weaker means in comparison with the reference protein, sequence or condition of that experiment. At least one verdict was read from the data and is not stated in words by the source.

Chains of the proteins cited; added tags and fusions are not shown. Residues count along the entry.
UniProt P40763, 127-711 C328A: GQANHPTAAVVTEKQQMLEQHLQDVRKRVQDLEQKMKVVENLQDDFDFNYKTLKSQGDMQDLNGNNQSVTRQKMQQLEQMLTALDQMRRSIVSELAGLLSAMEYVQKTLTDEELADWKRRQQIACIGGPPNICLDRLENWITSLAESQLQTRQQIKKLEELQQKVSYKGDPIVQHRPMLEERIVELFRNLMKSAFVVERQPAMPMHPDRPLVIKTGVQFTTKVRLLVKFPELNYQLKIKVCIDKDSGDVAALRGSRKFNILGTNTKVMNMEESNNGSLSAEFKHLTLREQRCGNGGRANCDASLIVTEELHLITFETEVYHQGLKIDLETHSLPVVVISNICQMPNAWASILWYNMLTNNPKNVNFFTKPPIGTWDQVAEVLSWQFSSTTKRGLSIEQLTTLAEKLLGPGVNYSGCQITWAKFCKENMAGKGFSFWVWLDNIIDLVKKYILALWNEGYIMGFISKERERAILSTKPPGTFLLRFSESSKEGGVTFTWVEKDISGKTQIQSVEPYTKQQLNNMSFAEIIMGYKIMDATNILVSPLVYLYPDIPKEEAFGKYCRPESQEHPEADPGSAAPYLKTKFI
UniProt P40763, 127-711 C426A: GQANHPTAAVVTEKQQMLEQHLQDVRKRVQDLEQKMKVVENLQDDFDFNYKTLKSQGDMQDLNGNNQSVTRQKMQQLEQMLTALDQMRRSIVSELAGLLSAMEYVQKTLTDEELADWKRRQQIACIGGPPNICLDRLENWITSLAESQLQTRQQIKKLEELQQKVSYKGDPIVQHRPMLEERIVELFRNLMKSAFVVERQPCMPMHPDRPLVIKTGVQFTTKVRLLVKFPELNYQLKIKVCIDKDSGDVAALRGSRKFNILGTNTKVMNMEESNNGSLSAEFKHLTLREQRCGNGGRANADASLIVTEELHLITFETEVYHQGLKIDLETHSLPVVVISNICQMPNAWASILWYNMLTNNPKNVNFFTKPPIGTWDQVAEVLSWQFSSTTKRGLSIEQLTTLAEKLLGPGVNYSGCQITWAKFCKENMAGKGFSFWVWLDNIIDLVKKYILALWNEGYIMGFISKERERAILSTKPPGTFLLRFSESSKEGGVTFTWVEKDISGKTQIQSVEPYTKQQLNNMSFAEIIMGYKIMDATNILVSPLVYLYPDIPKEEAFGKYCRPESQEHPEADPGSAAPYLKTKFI
UniProt P40763, 127-711 C468A: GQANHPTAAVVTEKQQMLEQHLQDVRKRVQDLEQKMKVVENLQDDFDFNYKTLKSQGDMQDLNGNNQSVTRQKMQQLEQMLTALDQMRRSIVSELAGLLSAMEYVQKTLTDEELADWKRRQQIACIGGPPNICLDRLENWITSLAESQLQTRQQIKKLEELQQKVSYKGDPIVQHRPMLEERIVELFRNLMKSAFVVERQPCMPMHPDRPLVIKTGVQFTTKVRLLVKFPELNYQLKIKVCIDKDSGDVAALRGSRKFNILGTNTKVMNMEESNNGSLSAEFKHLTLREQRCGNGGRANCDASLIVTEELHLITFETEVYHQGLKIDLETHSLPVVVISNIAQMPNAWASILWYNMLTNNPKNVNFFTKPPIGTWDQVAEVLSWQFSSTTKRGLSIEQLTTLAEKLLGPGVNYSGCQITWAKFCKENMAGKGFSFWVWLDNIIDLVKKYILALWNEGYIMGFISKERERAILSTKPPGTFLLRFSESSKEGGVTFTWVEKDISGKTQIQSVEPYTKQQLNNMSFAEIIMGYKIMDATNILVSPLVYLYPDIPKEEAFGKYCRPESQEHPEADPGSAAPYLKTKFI
UniProt P40763, 127-711 C542S: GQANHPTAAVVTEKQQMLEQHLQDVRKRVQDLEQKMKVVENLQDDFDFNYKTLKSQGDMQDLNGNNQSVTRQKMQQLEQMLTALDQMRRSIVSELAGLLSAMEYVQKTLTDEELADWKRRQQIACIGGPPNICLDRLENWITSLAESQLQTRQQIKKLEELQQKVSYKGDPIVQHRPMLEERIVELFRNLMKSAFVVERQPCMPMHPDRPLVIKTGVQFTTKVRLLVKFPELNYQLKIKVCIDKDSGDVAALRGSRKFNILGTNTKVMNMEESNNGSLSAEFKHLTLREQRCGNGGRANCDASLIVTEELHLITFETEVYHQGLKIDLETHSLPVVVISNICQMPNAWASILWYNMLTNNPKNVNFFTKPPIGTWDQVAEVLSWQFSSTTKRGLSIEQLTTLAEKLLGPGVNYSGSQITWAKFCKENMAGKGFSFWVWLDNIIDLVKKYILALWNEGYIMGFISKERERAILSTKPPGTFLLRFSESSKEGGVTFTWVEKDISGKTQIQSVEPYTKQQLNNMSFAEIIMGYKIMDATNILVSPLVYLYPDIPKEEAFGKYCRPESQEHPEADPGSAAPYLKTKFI
UniProt P40763, 127-711: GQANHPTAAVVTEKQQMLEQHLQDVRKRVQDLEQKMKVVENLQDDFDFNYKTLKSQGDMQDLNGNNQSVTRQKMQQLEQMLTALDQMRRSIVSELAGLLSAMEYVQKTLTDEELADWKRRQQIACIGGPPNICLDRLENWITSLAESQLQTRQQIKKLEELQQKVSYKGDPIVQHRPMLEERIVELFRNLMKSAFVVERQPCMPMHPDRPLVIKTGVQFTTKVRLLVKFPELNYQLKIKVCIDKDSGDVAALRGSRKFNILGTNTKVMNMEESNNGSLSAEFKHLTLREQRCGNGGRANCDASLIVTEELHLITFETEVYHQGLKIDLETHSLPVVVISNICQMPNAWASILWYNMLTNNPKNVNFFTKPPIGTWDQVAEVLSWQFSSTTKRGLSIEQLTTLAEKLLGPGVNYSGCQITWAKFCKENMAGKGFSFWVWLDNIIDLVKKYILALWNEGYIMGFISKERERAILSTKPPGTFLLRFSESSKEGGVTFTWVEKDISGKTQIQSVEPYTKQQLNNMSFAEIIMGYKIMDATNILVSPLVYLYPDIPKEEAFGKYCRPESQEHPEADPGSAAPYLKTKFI

Columns and labels:
Experiment in all cases: EMSA
Settings in all cases: EMSA: protein pre-incubated with H182 or DMSO 30 min at room temperature, then 32P-hSIE 30 min at 30 C, binding buffer, recombinant protein, residues 127-711, protein details: C-terminal 6xHis, label: 32P
pYStat3 C328A (human) = pYStat3 C328A (human) (UniProt P40763)
pYStat3 C426A (human) = pYStat3 C426A (human) (UniProt P40763)
pYStat3 C468A (human) = pYStat3 C468A (human) (UniProt P40763)
pYStat3 C542S (human) = pYStat3 C542S (human) (UniProt P40763)
[1] = target: pYStat3 wild type (rStat3 core fragment) (human) (UniProt P40763)
[2] = 3 uM H182, 30 min pre-incubation
[3] = 3 uM H182, 30 min pre-incubation (unaffected)

AGCTTCATTTCCCGTAAATCCCTA (double strand) [hSIE (m67 variant)]
binding result (pYStat3 C328A (human); [2]): binds more weakly | binding result (pYStat3 C328A (human); no inhibitor (10% DMSO)): binds | binding result (pYStat3 C426A (human); [3]): binds | binding result (pYStat3 C426A (human); 10 uM H182, near complete inhibition (inhibitor IC50 6 uM)): binds more weakly | binding result (pYStat3 C426A (human); no inhibitor (10% DMSO)): binds | binding result (pYStat3 C468A (human); [3]): binds | binding result (pYStat3 C468A (human); 10 uM H182, no effect (inhibitor IC50 40 uM)): binds | binding result (pYStat3 C468A (human); 30 uM H182, inhibited (inhibitor IC50 40 uM)): binds more weakly | binding result (pYStat3 C468A (human); no inhibitor (10% DMSO)): binds | binding result (pYStat3 C542S (human); [2]): binds more weakly | binding result (pYStat3 C542S (human); no inhibitor (10% DMSO)): binds | binding result [1, 2]: binds more weakly | binding result ([1]; no inhibitor (10% DMSO)): binds
